Experimental data reported in ChEMBL document CHEMBL3856275, “Discovery of Second Generation Reversible Covalent DPP1 Inhibitors Leading to an Oxazepane Amidoacetonitrile Based Clinical Candidate (AZD7986)” (J Med Chem, 2016).
Values after ≈ are worked out from the molar mass of the structure shown.

Experiments:
physchem [1] = settings: buffer, pH 7.4
physchem [2] = settings: octanol/water, pH 7.4

## CCn1c(=O)oc2ccc(-c3ccc(C[C@@H](C#N)NC(=O)[C@@H]4CNCCCO4)cc3)cc21
Physchem [1]
  solubility kinetic at 2 h: 185 µM (≈ 80.4 µg/mL)
Physchem [2]
  logD at 10 µM: 1.3
